Measurements reported in PubChem BioAssay AID1224827 (NIAID, 2016).
This is an unselected part of about 3,800 deposited reagents. Over the whole deposit, about 2,200 (57%) got an active call. 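Active means a strong reporter change in either direction; calls are per siRNA, not per gene; qiagen siRNAs gave weaker effects.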 Unmarked entries are inactive. Reagents against one gene are numbered here. Further read-outs or replicates are left out here.

Purpose: 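Identify regulators of the macrophage TNF-alpha response to bacterial LPS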 (follow-up of hits)
System: RAW264.7 G9 mouse macrophage reporter clone
Knock-down reagent: single siRNA against mouse genes, 100 nM siRNA
Duration: siRNA for 2 days, then LPS about 16 h
Conditions: bacterial lipopolysaccharide (LPS), 10 ng/ml, cells fixed after overnight (about 16 h) stimulation
Read-out: 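TNF promoter reporter red fluorescence in nuclei, background subtracted, normalised per plate and to non-targeting control siRNA, as z-scores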
Reading the numbers: TNF reporter z-score, mean: higher = stronger Tnf promoter reporter signal
Rule for the call: 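Active siRNA: replicate-mean z-score of 2 or more, or -2 or less; no calls for control wells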

Knock-down of Grk5 (G protein-coupled receptor kinase 5) #1 came out at: TNF reporter z-score, mean -0.95.
Knock-down of Grk5 (G protein-coupled receptor kinase 5) #2 gave: TNF reporter z-score, mean -1.52.
After knock-down of Grk5 (G protein-coupled receptor kinase 5) #3, the record shows TNF reporter z-score, mean -3.83 (active).
With knock-down of Grk5 (G protein-coupled receptor kinase 5) #4, the record shows TNF reporter z-score, mean 3.79 (active).
After knock-down of Grk5 (G protein-coupled receptor kinase 5) #5, the record shows TNF reporter z-score, mean 0.242.
Knock-down of Grk5 (G protein-coupled receptor kinase 5) #6 gave: TNF reporter z-score, mean -2.61 (active).
Silencing of Card6 (caspase recruitment domain family, member 6) #1 resulted in: TNF reporter z-score, mean 1.83.
For Card6 (caspase recruitment domain family, member 6) #2, the entry reads TNF reporter z-score, mean -2.03 (active).
Card6 (caspase recruitment domain family, member 6) #3 showed TNF reporter z-score, mean -2.18 (active).
With knock-down of 9230109A22Rik (RIKEN cDNA 9230109A22 gene) #1 the results were TNF reporter z-score, mean 3.2 (active).
After knock-down of 9230109A22Rik (RIKEN cDNA 9230109A22 gene) #2 the results were TNF reporter z-score, mean 1.29.
Knock-down of 9230109A22Rik (RIKEN cDNA 9230109A22 gene) #3 resulted in: TNF reporter z-score, mean -3.86 (active).
After knock-down of 9230109A22Rik (RIKEN cDNA 9230109A22 gene) #4, the record shows TNF reporter z-score, mean 1.87.
With knock-down of 9230109A22Rik (RIKEN cDNA 9230109A22 gene) #5, the record shows TNF reporter z-score, mean 0.459.
Knock-down of 9230109A22Rik (RIKEN cDNA 9230109A22 gene) #6 resulted in: TNF reporter z-score, mean 0.774.
P2rx5 (purinergic receptor P2X, ligand-gated ion channel, 5) #1 gave TNF reporter z-score, mean -1.51.
For P2rx5 (purinergic receptor P2X, ligand-gated ion channel, 5) #2 the deposit lists TNF reporter z-score, mean -3.19 (active).
Knock-down of P2rx5 (purinergic receptor P2X, ligand-gated ion channel, 5) #3 gave: TNF reporter z-score, mean -4.31 (active).
P2rx5 (purinergic receptor P2X, ligand-gated ion channel, 5) #4 gave TNF reporter z-score, mean 1.67.
P2rx5 (purinergic receptor P2X, ligand-gated ion channel, 5) #5 gave TNF reporter z-score, mean -0.29.
Silencing of P2rx5 (purinergic receptor P2X, ligand-gated ion channel, 5) #6 resulted in: TNF reporter z-score, mean -1.8.

Ordered by “TNF reporter z-score, mean” (low to high): some entries from above
9230109A22Rik (RIKEN cDNA 9230109A22 gene) #3: TNF reporter z-score, mean = -3.86 (active)
9230109A22Rik (RIKEN cDNA 9230109A22 gene) #2: TNF reporter z-score, mean = 1.29
9230109A22Rik (RIKEN cDNA 9230109A22 gene) #4: TNF reporter z-score, mean = 1.87
9230109A22Rik (RIKEN cDNA 9230109A22 gene) #1: TNF reporter z-score, mean = 3.2 (active)

Next results:
Silencing of Zfp935 (zinc finger protein 935) #1 came out at: TNF reporter z-score, mean 7.63 (active).
Zfp935 (zinc finger protein 935) #2 scored TNF reporter z-score, mean -3.33 (active).
Knock-down of Zfp935 (zinc finger protein 935) #3 came out at: TNF reporter z-score, mean -3.59 (active).
With knock-down of Zfp935 (zinc finger protein 935) #4, the record shows TNF reporter z-score, mean -1.29.
After knock-down of Zfp935 (zinc finger protein 935) #5, the screen gave TNF reporter z-score, mean -1.97.
After knock-down of Zfp935 (zinc finger protein 935) #6, the screen gave TNF reporter z-score, mean -2.53 (active).
After knock-down of Actg1 (actin, gamma, cytoplasmic 1) #1, the record shows TNF reporter z-score, mean -2.22 (active).
Silencing of Actg1 (actin, gamma, cytoplasmic 1) #2 resulted in: TNF reporter z-score, mean -3.55 (active).
Against Actg1 (actin, gamma, cytoplasmic 1) #3, the entry reads TNF reporter z-score, mean -6.03 (active).
With knock-down of Actg1 (actin, gamma, cytoplasmic 1) #4 the results were TNF reporter z-score, mean 1.44.
Actg1 (actin, gamma, cytoplasmic 1) #5 scored TNF reporter z-score, mean 0.145.
After knock-down of Actg1 (actin, gamma, cytoplasmic 1) #6, the screen gave TNF reporter z-score, mean -2.93 (active).
